Results reported in US20160076075A1 (priority 2014, published 2016).
Where “and” joins values, the source holds several entries; their conditions need not be identical. Equal entries are not always repeated.

Test system: IMCSzyme™ (recombinant glucuronidase)
Assay: IMCSzyme hydrolysis of THCA glucuronide with and without water miscible organic media
Assay type: biochemical
Conditions: for Actual Conc. / % Dev.: replicates 01-05; for Actual Conc.: expected 18.5 ng/mL; for % Dev.: versus expected 18.5 ng/mL
Method: To a 10 mL volumetric flask add 5 mL of 0.2M Sodium Phosphate buffer pH 7.5. Then add 1.0 mL of IMCS enzyme. QS to the line with 0.2M phosphate buffer, cap and invert several times to mix well. Final enzyme concentration is 5000 U.
To a 10 mL volumetric flask add 6 mL of 50/50 ACN/MeOH. Add […] of THCA D9 100 μg/mL. Then add 1.0 mL of IMCS enzyme stock (>5000 U). QS to the line with 0.2M sodium phosphate buffer. Final enzyme concentration is 5000 U.
In a 10 mL volumetric flask add 6 mL of 50/50 ACN/MeOH. Add 25 μL of THCA D9 (100 μg/mL). QS to the line with DI water, cap and invert several times to mix well. Concentration of IS will be 250 ng/mL.
To a 10 mL volumetric flask add 1 mL ACN. Add 18.5 μL of 10 μg/mL THCA Glucuronide working solution adjusted to allow quantitation of THCA at 18.5 ng/mL post hydrolysis. QS to line with NHU.
Pipet 50 μL sample into a 750 μL autosampler vial. Pipet 50 μL of prepared enzyme into vial (this will yield 500 U in final 500 μL volume) and wait 5, 10, 15, and 20 minutes. Then pipet 400 μL of THCA D9 IS into the vial. Vortex and move to instrument.
Pipet 50 μL sample into a 750 μL, autosampler vial. Then pipet 450 μL, of Enzyme Stock Solution With Organic (see above) into vial. Wait 5, 10, 15, and 20 minutes. Vortex and move to instrument.

## CCCCCc1cc(O)c2c(c1)OC(C)(C)C1CCC(C(=O)OC3OC(C(=O)O)C(O)C(O)C3O)=CC21 (stereo not drawn) [THCA Glucuronide]
55° C., 5 min
  Average % Accuracy: 89.20%
  % Dev.: 7.96% and 14.35% and 13.15% and 7.04% and 11.48%
55° C., 5 min, enzyme incubated, then organic media added
  Actual Conc.: 20.1 ng/mL and 21.6 ng/mL and 21.3 ng/mL and 19.9 ng/mL and 20.9 ng/mL
65° C., 5 min
  Average % Accuracy: 90.07%
  % Dev.: 6.09% (2×) and 18.14% and 12.74% and 6.57%
65° C., 5 min, enzyme incubated, then organic media added
  Actual Conc.: 19.7 ng/mL (2×) and 22.6 ng/mL and 21.2 ng/mL and 19.8 ng/mL
Room Temp, 5 minutes
  Average % Accuracy: 110.20%
  % Dev.: −8.19% and −27.59% and −3.93% and −1.09% and −10.12%
Room Temp, 5 minutes, enzyme and organic media added at same time
  Actual Conc.: 17.1 ng/mL and 14.5 ng/mL and 17.8 ng/mL and 18.3 ng/mL and 16.8 ng/mL
Room Temp., 10 minutes
  Average % Accuracy: 101.70%
  % Dev.: −6.32% and 15.53% and −10.12% and 0.00% and −7.56%
Room Temp., 10 minutes, enzyme and organic media added at same time
  Actual Conc.: 17.4 ng/mL and 21.9 ng/mL and 16.8 ng/mL and 18.5 ng/mL and 17.2 ng/mL
